PubChem BioAssay AID504764, Drosophila RNAi Screening Center, 2011

Screen: 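Genes whose knock-down alters Notch-dependent transcription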 (primary screen)
Cells: Drosophila Kc167 cells
Reagent: long dsRNA against Drosophila genes
Time to read-out: about 5 days (4 days dsRNA, then 24 h after transfection)
Conditions: transfection of constitutively active membrane-tethered Notch lacking the extracellular domain, read 24 h later
Measured: 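Light from a Notch-responsive E(spl)m3 luciferase reporter under active Notch, with control-promoter and no-Notch reporter wells to normalise; raw counts from paired wells a and b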
Scale: induced reporter light, run 1, well a and induced reporter light, run 1, well b: higher = more light from the Notch target reporter with active Notch; control promoter light, run 1, well a and control promoter light, run 1, well b: higher = more light from the viral control promoter (cell number, transfection, viability); uninduced reporter light, run 1, well a: higher = more light from the Notch target reporter without active Notch
Rule for the call: 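Wells with low control signal or poorly matching duplicates excluded; duplicates averaged; per source plate, z beyond ±2 for induced/control log2 ratio or beyond ±1.8 for induced/uninduced marks a hit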
Calls: active = modifier hit (raised or lowered Notch signal); inactive = not a hit
In all, the deposit lists about 22,000 reagents; this is an unselected part of those with a known target gene and a result. Over the whole deposit, 403 (1.9%) are marked active. 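Unnormalised raw counts per well; ratio z-scores behind the hit calls and whether each hit raises or lowers signal are not deposited.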 No sequences are given here. Not given: the amount of reagent.

no.	Gene	DRSC id	induced reporter light, run 1, well a	induced reporter light, run 1, well b	control promoter light, run 1, well a	control promoter light, run 1, well b	uninduced reporter light, run 1, well a	Outcome
1	CG32106	DRSC09219	2.86e5	2.49e5	3.20e5	3.87e5	26490	inactive
2	CG8298	DRSC07138	95205	1.10e5	1.31e5	1.19e5	8830	inactive
3	Ilk (Integrin linked kinase)	DRSC11868	2.03e5	1.77e5	2.93e5	3.20e5	14480	inactive
4	CG17177	DRSC10257	1.89e5	2.40e5	3.92e5	4.08e5	11305	active
5	CR30068 (retired record)	DRSC05477	1.42e5	1.78e5	2.64e5	2.12e5	14490	inactive
6	qless	DRSC15103	1.66e5	1.91e5	2.41e5	2.74e5	15435	inactive
7	qless	DRSC15507	1.23e5	1.25e5	2.04e5	1.70e5	10382	inactive
8	Rpn13R (Regulatory particle non-ATPase 13-related)	DRSC18404	1.27e5	1.22e5	2.17e5	2.47e5	10970	inactive
9	CG3982	DRSC10394	23580	23270	23275	19210	3150	inactive
10	karr	DRSC20681	91955	85940	99755	1.33e5	10995	inactive
11	CG18081	DRSC10294	1.84e5	1.55e5	2.10e5	2.13e5	9145	inactive
12	Cda9 (Chitin deacetylase-like 9)	DRSC06593	1.23e5	1.03e5	1.20e5	1.20e5	10550	inactive
13	CG13384	DRSC02258	85370	96105	92320	1.03e5	8030	inactive
14	CG13036 (retired record)	DRSC09916	1.71e5	1.34e5	1.80e5	1.85e5	7395	inactive
15	Rad23	DRSC17167	1.67e5	1.81e5	2.34e5	1.94e5	12545	inactive
16	CG17078	DRSC00484	99405	1.02e5	96900	64640	7995	inactive
17	Mov10 (Mov10 RISC complex RNA helicase)	DRSC07012	99620	99030	1.57e5	1.81e5	8440	inactive
18	CG31249	DRSC16248	2.08e5	1.87e5	2.19e5	2.26e5	12640	inactive
19	Tom40 (Translocase of outer membrane 40)	DRSC18796	90610	1.28e5	1.61e5	1.75e5	7700	inactive
20	Pfk (Phosphofructokinase)	DRSC07506	1.05e5	1.12e5	1.01e5	84115	11855	inactive
21	mIF3 (mitochondrial translation initiation factor 3)	DRSC06290	91445	89295	1.35e5	1.08e5	9345	inactive
22	CG1999	DRSC18199	2.65e5	2.23e5	2.91e5	2.80e5	14250	inactive
23	Sry-alpha (Serendipity alpha)	DRSC16867	1.60e5	1.41e5	1.98e5	1.91e5	12435	inactive
24	CG6785	DRSC02993	1.91e5	1.81e5	1.05e5	1.34e5	13950	inactive
25	aph-1 (anterior pharynx defective 1)	DRSC00547	1.38e5	1.48e5	1.43e5	2.07e5	13770	inactive
26	CG12923	DRSC06237	1.93e5	2.06e5	2.67e5	2.60e5	19755	inactive
27	tea (telomere ends associated)	DRSC06110	1.34e5	1.14e5	1.15e5	1.01e5	11220	inactive
28	tea (telomere ends associated)	DRSC06236	1.97e5	1.47e5	1.76e5	1.70e5	13635	inactive
29	Acsx3 (Acyl-CoA synthetase X3)	DRSC14309	1.33e5	2.01e5	1.89e5	2.11e5	18150	inactive
30	CG13071	DRSC09954	1.57e5	1.40e5	1.91e5	2.21e5	8945	inactive
31	CG13059	DRSC09942	1.81e5	1.97e5	2.19e5	2.29e5	13510	inactive
32	CalpB (Calpain-B)	DRSC11109	1.32e5	1.53e5	1.16e5	78300	15225	inactive
33	Rad60	DRSC15580	1.04e5	98055	80960	1.21e5	8610	inactive
34	CG11350	DRSC08181	1.81e5	1.98e5	1.88e5	1.84e5	5575	inactive
35	kermit	DRSC06074	1.79e5	1.77e5	1.52e5	1.36e5	12000	inactive
36	Polr3B (RNA polymerase III subunit B)	DRSC07536	1.14e5	1.09e5	1.13e5	81725	11570	inactive
37	CG32830 (retired record)	DRSC01162	6542	5865	6705	6840	2742	inactive
38	CG4021	DRSC04439	27270	31440	27470	26855	1490	inactive
39	CG9962	DRSC00739	98485	1.21e5	89460	51860	7780	inactive
40	mRpS18C (mitochondrial ribosomal protein S18C)	DRSC16538	1.50e5	1.32e5	1.91e5	1.69e5	12080	inactive
41	CG5348	DRSC06933	1.33e5	96060	1.02e5	88520	8200	inactive
42	Pa1 (PTIP associated 1)	DRSC19422	1.38e5	1.08e5	1.90e5	1.97e5	8180	inactive
43	CG34353	DRSC14493	1.94e5	1.72e5	2.60e5	2.38e5	17100	inactive
44	CG34353	DRSC14517	1.19e5	2.19e5	1.30e5	1.16e5	8805	inactive
45	CG34353	DRSC14563	1.23e5	1.31e5	1.72e5	1.61e5	12955	inactive
46	CG34353	DRSC15837	1.11e5	94065	1.48e5	1.38e5	10705	inactive
47	CG31287	DRSC13138	1.56e5	1.28e5	1.97e5	1.69e5	8855	inactive
48	mey (morpheyus)	DRSC14468	1.83e5	2.16e5	2.79e5	2.88e5	14000	inactive
49	Vha36-3 (Vacuolar H[+] ATPase 36kD subunit 3)	DRSC18615	1.26e5	1.02e5	1.67e5	1.99e5	8510	inactive
50	CG8155	DRSC07084	1.23e5	1.33e5	2.02e5	2.38e5	9130	inactive
51	Tmtc2 (Transmembrane O-mannosyltransferase targeting cadherins 2)	DRSC00272	96140	1.08e5	78895	81465	14515	inactive
52	CG34230	DRSC05317	2.49e5	2.21e5	2.74e5	3.30e5	17920	inactive
53	Or24a (Odorant receptor 24a)	DRSC00768	1.82e5	1.73e5	2.50e5	2.67e5	12132	inactive
54	CG17127	DRSC02581	1.04e5	1.14e5	60195	60670	15365	inactive
55	CG15024	DRSC08478	2.11e5	1.60e5	2.46e5	2.13e5	7920	inactive
56	stan (starry night)	DRSC05234	14850	12200	16415	19020	8325	inactive
57	stan (starry night)	DRSC07697	1.78e5	1.53e5	2.30e5	2.06e5	15400	inactive
58	CG7031	DRSC16178	9265	10690	7275	7865	2770	inactive
59	CG42552 (retired record)	DRSC11512	2.36e5	2.14e5	3.20e5	2.05e5	17670	inactive
60	ssx	DRSC18492	1.03e5	1.57e5	1.32e5	1.22e5	15570	inactive
61	Hs6st (Heparan sulfate 6-O-sulfotransferase)	DRSC14348	1.80e5	1.46e5	1.65e5	1.56e5	12395	inactive
62	Hs6st (Heparan sulfate 6-O-sulfotransferase)	DRSC15182	2.08e5	2.41e5	2.27e5	2.41e5	15460	inactive
63	Hs6st (Heparan sulfate 6-O-sulfotransferase)	DRSC15581	1.98e5	1.91e5	2.08e5	1.93e5	14285	inactive
64	Ir76a (Ionotropic receptor 76a)	DRSC10987	1.50e5	1.41e5	83370	86720	11055	inactive

In a second layout: entries from further up
Gene	DRSC id	induced reporter light, run 1, well a	induced reporter light, run 1, well b	control promoter light, run 1, well a	control promoter light, run 1, well b	uninduced reporter light, run 1, well a	Outcome
Tmtc2 (Transmembrane O-mannosyltransferase targeting cadherins 2)	DRSC00272	96140	1.08e5	78895	81465	14515	inactive
CG34230	DRSC05317	2.49e5	2.21e5	2.74e5	3.30e5	17920	inactive
Or24a (Odorant receptor 24a)	DRSC00768	1.82e5	1.73e5	2.50e5	2.67e5	12132	inactive
CG17127	DRSC02581	1.04e5	1.14e5	60195	60670	15365	inactive
CG15024	DRSC08478	2.11e5	1.60e5	2.46e5	2.13e5	7920	inactive
stan (starry night)	DRSC05234	14850	12200	16415	19020	8325	inactive
stan (starry night)	DRSC07697	1.78e5	1.53e5	2.30e5	2.06e5	15400	inactive
CG7031	DRSC16178	9265	10690	7275	7865	2770	inactive
CG42552 (retired record)	DRSC11512	2.36e5	2.14e5	3.20e5	2.05e5	17670	inactive
